Experimental data published in the supplement of paper PMC10735217.
Structures can show the parent of a compound that is named as a salt. This is one part of the list. Single values are uncertain here, since repeats match poorly.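 Human kidney-derived cells stably carry a construct in which eight TEAD-binding elements drive luciferase, measured by luminescence in a drug-repurposing library screen. A hit is any compound whose signal exceeds the plate mean by more than five robust Z scores.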

Tested on: HEK293A TEAD-LUC reporter
Test: TEAD-luciferase reporter activity (YAP activation), robust Z score vs plate; higher = stronger YAP/TEAD activation
Conditions: 24 h

SMILES | TEAD-luciferase reporter activity (compound concentration: 200 nM) | TEAD-luciferase reporter activity (compound concentration: 2 uM) | TEAD-luciferase reporter activity (compound concentration: 10 uM)
CCOCCOC(=O)/C=C/c1ccc(OC)cc1 | inactive: -3.68 | active: 8.02 | inactive: 0.896
CC1(C)CC=C(c2nc(C3CC(C)(C)OC(C)(C)C3)ccc2NC(=O)c2nc(C#N)c[nH]2)CC1 | inactive: -1.77 | inactive: -0.74 | inactive: -1.03
CC(C)n1c(=O)c(C(=O)NC2CC3CCC(C2)N3C[C@@H](O)CN(C)S(C)(=O)=O)cc2ccccc21 (stereo not given in full) [velusetrag] | inactive: -1.16 | inactive: 1.43 | inactive: -1.01
COc1ccccc1OCCNCC(O)COc1cccc2[nH]c3ccccc3c12 (stereo not given) [carvedilol sulfate] | – | inactive: -0.959 | –
COc1ccccc1OCCNCC(O)COc1cccc2[nH]c3ccccc3c12 (stereo not given) [Carvedilol] | inactive: -1.6 | – | inactive: -1.42
N=C(N)Nc1nc(-c2cccc(N)c2)cs1 | inactive: -0.891 | inactive: -1.29 | inactive: 0.181
O=C(O)CCC(=O)Nc1ccc(S(=O)(=O)Nc2nccs2)cc1 | inactive: 2.26 | inactive: -0.334 | inactive: 2.36
OCC1O[C@@H](Oc2cc3c(O)cc(O)cc3[o+]c2-c2cc(O)c(O)c(O)c2)[C@@H](O)C(O)[C@@H]1O (stereo not given in full) [Delphinidin 3-glucoside chloride] | inactive: -0.546 | inactive: -1.41 | inactive: 0.136
Cc1noc(-c2ccc(-c3ccc(C4(C(=O)O)CC4)cc3)cc2)c1NC(=O)O[C@H](C)c1ccccc1 | – | inactive: -1.85 | –
CCc1noc(C)c1-c1[nH]c2ccccc2c1C(O)CN(C)C (stereo not given) | inactive: -2.05 | inactive: -0.52 | inactive: 3.68
O=C(Nc1nn[nH]n1)c1cncc(N2CCCC2)n1 | inactive: -1.71 | inactive: -1.15 | inactive: -0.682
CC1C(N)CN1c1cc2c(cc1F)c(=O)c(C(=O)O)cn2-c1ccc(F)cc1F (stereo not given) | inactive: 0.8 | inactive: 2 | inactive: 1.74
CCN(C(=O)C1CCN(C(C)C)CC1)C(C)Cc1ccc(OC)cc1 (stereo not given) | inactive: -1.88 | inactive: 1.5 | inactive: 2.57
CC(C)(CO)NCC(O)c1cc(O)cc(O)c1 (stereo not given) | inactive: -0.341 | inactive: 1 | inactive: 0.0881
N#Cc1ccc(CN2CCC3(CC2)NC(=O)c2ccccc2O3)cc1 | inactive: 0.478 | – | inactive: -0.293
CC(C)(C)c1cc(-c2cc(-c3ccc(C(=O)O)cc3)ccc2OCCO)ccc1N1CCCC1 [trifarotene] | inactive: -2.53 | inactive: -0.383 | inactive: -0.502
NC(C(=O)Cl)c1ccccc1 (stereo not given) | inactive: -1.1 | inactive: -1.45 | inactive: 0.452
CN(Cc1cccc(C(F)(F)F)c1)C(=O)[C@@H](CCC(=O)N1CCC(N2CCCCC2)CC1)N1C(=O)[C@@H](N2C(=O)OC[C@@H]2c2ccccc2)[C@H]1/C=C/c1ccccc1 [analog of SRX-251] | – | inactive: 1.06 | –
COc1cc2c(c(OC)c1OC)-c1c(cc(OC)c(OC)c1OC)C[C@](C)(O)[C@@H](C)C2 [Schizandrin] | inactive: -1.25 | inactive: 0.15 | inactive: 0.128
O=C(CCBr)N1CCN(C(=O)CCBr)CC1 [Pipobroman] | inactive: 3.58 | inactive: -0.0648 | inactive: 1.36

SMILES | TEAD-luciferase reporter activity (compound concentration: 200 nM) | TEAD-luciferase reporter activity (compound concentration: 2 uM) | TEAD-luciferase reporter activity (compound concentration: 10 uM)
CC(C)Sc1cc(-c2ccc(CCNC[C@H](O)c3ccccc3)cc2)ccc1C(=O)NS(C)(=O)=O | inactive: -0.63 | inactive: -0.614 | inactive: -0.955
CCOC(=O)Nc1ccc(SCC2CO[C@](Cn3ccnc3)(c3ccc(Cl)cc3Cl)O2)cc1 (stereo not given in full) [tubulozole] | inactive: 0.647 | active: 9.2 | inactive: 3.13
N=C(N)NN=Cc1ccccc1Cl | inactive: -0.495 | inactive: -0.977 | inactive: 3.32
O=C(O)CCC/C=C(/c1ccc(CCNS(=O)(=O)c2ccc(Cl)cc2)cc1)c1cccnc1 | inactive: -0.93 | inactive: -0.853 | inactive: -1.19
CC(C)NCC(O)COc1ccccc1C1CC2CCC1C2 (stereo not given) | inactive: 1.36 | inactive: 0.771 | inactive: 4.3
COc1ccc(C(=O)Nc2ccccc2CCC2CCCCN2C)cc1 (stereo not given) [encainide] | inactive: -0.952 | inactive: -0.676 | –
CNCCCCNCC1CC1C (stereo not given) | inactive: -0.843 | inactive: 0.664 | active: 5.08
CC(=O)Nc1ccc(OC(C)(C)C)cc1 | inactive: -0.84 | inactive: -0.609 | inactive: 1.78
CC(C)(C)c1ccc(CCC(O)COc2ccc(C(=O)O)cc2)cc1 (stereo not given) [lifibrol] | inactive: 1.96 | inactive: -0.411 | inactive: 0.259
NC(=O)c1nc(F)cnc1O [Favipiravir] | – | inactive: 1.7 | –
NC(=O)c1nc(F)cnc1O | inactive: 1.45 | – | inactive: -1.05
Nc1nc2c(s1)CCc1c-2sc2nc(-c3ccccc3)cn12 | inactive: -0.92 | inactive: -2.45 | inactive: -3.09
N=C(NC(=O)c1nc(Cl)c(N)nc1N)NC1CCN(C(=O)c2ccc(C(=O)N3CCC(NC(=N)NC(=O)c4nc(Cl)c(N)nc4N)CC3)cc2)CC1 | inactive: 1.66 | inactive: 0.434 | inactive: 1.55
CCOC(Nc1ccc(C(=O)O)cc1)C(=O)c1ccc(-c2ccccc2)cc1 (stereo not given) | inactive: -0.812 | inactive: -0.843 | inactive: -1.55
Cc1c(Cl)cccc1S(=O)(=O)Nc1nc(CCN2CCOCC2=O)cs1 | inactive: 0.201 | inactive: 0.253 | inactive: 0.153
c1csc(-c2cn3c(n2)SCC3)c1 | inactive: -0.227 | inactive: 0.538 | inactive: 4.5
O=S1(=O)CS(=O)(=O)OCCO1 [cyclodisone] | inactive: -1.21 | inactive: 1.21 | inactive: -0.556
CONC1=C(C)[C@@H](/C(C)=C/C(C)C)O[C@]2(C1)C[C@@H]1C[C@@H](C/C=C(\C)C[C@@H](C)/C=C/C=C3\CO[C@@H]4[C@H](O)C(C)=C[C@@H](C(=O)O1)[C@]34O)O2 [Moxidectin] | inactive: -0.353 | inactive: 0.293 | inactive: -3.36
C=CCOc1ccccc1OCC(O)CNC(C)C (stereo not given) [oxprenolol] | – | inactive: 2.72 | –
C=CCOc1ccccc1OCC(O)CNC(C)C (stereo not given) [oxprenolol, Alza] | inactive: -0.788 | – | inactive: -0.46

3 neighbouring entries already listed, quoted:
SMILES | TEAD-luciferase reporter activity (compound concentration: 200 nM) | TEAD-luciferase reporter activity (compound concentration: 2 uM) | TEAD-luciferase reporter activity (compound concentration: 10 uM)
CC(C)Sc1cc(-c2ccc(CCNC[C@H](O)c3ccccc3)cc2)ccc1C(=O)NS(C)(=O)=O | inactive: -0.63 | inactive: -0.614 | inactive: -0.955
CCOC(=O)Nc1ccc(SCC2CO[C@](Cn3ccnc3)(c3ccc(Cl)cc3Cl)O2)cc1 (stereo not given in full) [tubulozole] | inactive: 0.647 | active: 9.2 | inactive: 3.13
N=C(N)NN=Cc1ccccc1Cl | inactive: -0.495 | inactive: -0.977 | inactive: 3.32

Next part.

SMILES | TEAD-luciferase reporter activity (compound concentration: 200 nM) | TEAD-luciferase reporter activity (compound concentration: 2 uM) | TEAD-luciferase reporter activity (compound concentration: 10 uM)
CNCCCN1c2ccccc2CCc2ccccc21 [Desipramine] | inactive: 0.00999 | inactive: -0.738 | inactive: -0.162
NC(=O)Oc1ccc(Cc2ccccc2)cc1 | inactive: -0.35 | inactive: 0.0732 | inactive: -0.854
O=C(c1ccccc1F)N1CCC(n2c(=O)[nH]c3ccccc32)CC1 | inactive: 0.0143 | – | active: 6.73
Cc1ccn(-c2cc(Cl)ccc2[C@@H](Oc2cc(-c3ccc(C[C@H](N)C(=O)O)cc3)nc(N)n2)C(F)(F)F)n1 [Telotristat] | inactive: 0.381 | – | inactive: 4.4
Cc1ccn(-c2cc(Cl)ccc2[C@@H](Oc2cc(-c3ccc(C[C@H](N)C(=O)O)cc3)nc(N)n2)C(F)(F)F)n1 | – | inactive: 1.23 | –
CNC(=O)c1ccc(N2C[C@H](CNC(C)=O)OC2=O)cc1F | inactive: -1.58 | inactive: -0.294 | inactive: -1.27
CNCC(C)C1CCCCC1 (stereo not given) | inactive: 0.905 | inactive: -0.229 | inactive: 1.04
CCCN1CCCCC12Cc1ccccc1CN(C(=O)C1CCCC1)C2 (stereo not given) | inactive: -2.53 | – | inactive: -1.03
Cc1nccc2[nH]c(=O)ccc12 [Medori] | inactive: -0.342 | inactive: -1.21 | inactive: -0.0433
N[C@]1(C[n+]2ccccc2)C[C@H](C(=O)O)NC1=O | inactive: 0.000636 | – | inactive: 0.029
CC(C)COc1cccc2[nH]c(C(=O)NC3CCN(CCN4CCCCCC4)CC3)cc12 | inactive: -1.34 | inactive: -0.493 | inactive: 0.901
OC[C@H]1NC[C@H](O)[C@@H](O)[C@@H]1O [Duvoglustat] | inactive: -0.366 | – | inactive: -0.641
OC[C@H]1NC[C@H](O)[C@@H](O)[C@@H]1O [1-Deoxynojirimycin] | – | inactive: 2.29 | –
OC[C@H]1NC[C@H](O)[C@@H](O)[C@@H]1O [Duvoglustat hydrochloride] | – | inactive: 0.323 | –
CC(C)(C)C[C@@H]1N[C@@H](C(=O)N[C@H]2CC[C@H](O)CC2)[C@H](c2cccc(Cl)c2F)[C@]12C(=O)Nc1cc(Cl)ccc12 | inactive: -0.396 | inactive: -1.06 | inactive: -1.16
O=C(c1ccc(F)cc1)N1CCC(C(=O)N2CCC(N3CCCC3=O)CC2)CC1 | inactive: 0.146 | – | inactive: 0.189
CC(C)NC(=O)COc1cccc(-c2nc(Nc3ccc4[nH]ncc4c3)c3ccccc3n2)c1 | inactive: 1.13 | inactive: -1.93 | inactive: -0.206
Cc1ccc(-c2nc(N)nc3c2nnn3Cc2cccc(CO[C@H]3CCOC3)n2)o1 | inactive: -1.61 | inactive: 0.352 | inactive: 0.274
CC(C)C(=O)OC[C@@]1(N=[N+]=[N-])O[C@@H](n2ccc(N)nc2=O)[C@H](OC(=O)C(C)C)[C@@H]1OC(=O)C(C)C [Balapiravir hydrochloride] | inactive: -1.22 | inactive: -2.06 | inactive: 1.57
